Laboratory results reported in patent publication US10215752B2, “Nanotube array for optical detection of protein-protein interactions” (MASSACHUSETTS INSTITUTE OF TECHNOLOGY, priority 2010, dated 2019).

Experiments:
[1] = system: Ni-NTA functionalized SWNT/CHI array; assay: On-chip cell-free expression and immobilization of His-tag capture proteins, nIR fluorescence of SWNT/CHI array; conditions: distance change between Ni2+ ion and SWNT after receptor protein, Förster resonance energy transfer equation
antiHis Ab = assay: Protein-protein interaction on SWNT/CHI array, Förster distance calculation; conditions: distance change after analyte protein antiHis Ab, Förster equation

Substance | Δd1 [1] [nm] | Δd2 (antiHis Ab)
FOS: human derived protein (ExPASy P01100), on-chip cell-free expressed with His-tag | 0.0956 | 
JUN: human derived protein (ExPASy P05412), on-chip cell-free expressed with His-tag | 0.07671 | 
Tsf: E. coli protein (ExPASy P0A6P1), cell-free expressed with C-terminal His-tag | 0.1883 | −0.01899
p16: human derived protein (ExPASy P42771), on-chip cell-free expressed with His-tag | 0.0812 | 
